Values from PubChem BioAssay AID652243 (Drosophila RNAi Screening Center, 2013)
The deposit covers about 24,000 reagents; shown is an unselected part of those that have a named target and a result. Of all reagents, 246 (1%) were called active. 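Plates not normalised; calls are printed but the firefly/Renilla ratio behind them is not deposited; fold cut for lowering reported inconsistently.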 Raw values vary from plate to plate and are shown uncorrected. Unmarked entries are inactive. Names joined by + are all predicted targets of the reagent. Reagent sequences are not shown. Not stated in the record: the amount of reagent.

Screen: 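Fly regulators of androgen-dependent reporter output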 (primary screen)
System: Drosophila S2R+ cells
Knock-down reagent: long dsRNA against Drosophila genes
Timing: 72 h (48 h, then 24 h hormone)
Conditions: synthetic androgen R1881 at 10 nM for 24 h
Measurement: 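Firefly light from an androgen-responsive reporter and Renilla control light per well, raw and unnormalised, for each of two replicates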
Scale: firefly reporter light: higher = more light from androgen-responsive reporter; Renilla control light: higher = more constitutive control signal (cell number, transfection)
Call rule: 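Hit when the log firefly-to-Renilla ratio dropped or increased by a fixed fold versus the mean of GFP or LacZ controls across duplicate plates; lowering cut given as 1.5 and as 3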
Calls: active = hit: reporter lowered or raised; inactive = no hit

The first 5 entries, to show the layout:
| target | amplicon | firefly reporter light, replicate 1 | firefly reporter light, replicate 2 | Renilla control light, replicate 1 | Renilla control light, replicate 2 |
| --- | --- | --- | --- | --- | --- |
| Cp18 | DRSC11120 | 2.35e5 | 3.35e5 | 3.13e6 | 1.88e6 |
| Incenp | DRSC06116 | 5.41e5 | 4.90e5 | 9.88e5 | 1.49e6 |
| Incenp | DRSC21950 | 3.00e5 | 3.03e5 | 1.16e6 | 1.02e6 |
| Incenp | DRSC28036 | 2.23e5 | 3.56e5 | 1.60e6 | 1.39e6 |
| Gr57a | DRSC06401 | 87690 | 1.08e5 | 1.30e6 | 1.31e6 |

Main list, from the first entry:
| target | amplicon | firefly reporter light, replicate 1 | firefly reporter light, replicate 2 | Renilla control light, replicate 1 | Renilla control light, replicate 2 |
| --- | --- | --- | --- | --- | --- |
| Cp18 | DRSC11120 | 2.35e5 | 3.35e5 | 3.13e6 | 1.88e6 |
| Incenp | DRSC06116 | 5.41e5 | 4.90e5 | 9.88e5 | 1.49e6 |
| Incenp | DRSC21950 | 3.00e5 | 3.03e5 | 1.16e6 | 1.02e6 |
| Incenp | DRSC28036 | 2.23e5 | 3.56e5 | 1.60e6 | 1.39e6 |
| Gr57a | DRSC06401 | 87690 | 1.08e5 | 1.30e6 | 1.31e6 |
| GstE11 | DRSC06926 | 6.58e5 | 4.30e5 | 9.86e5 | 8.47e5 |
| CG32537 | DRSC20073 | 76254 | 1.07e5 | 4.64e5 | 9.42e5 |
| CG32537 | DRSC23589 | 7.22e5 | 8.47e5 | 5.90e5 | 5.87e5 |
| CG13243 | DRSC01920 | 1.08e5 | 1.44e5 | 1.41e6 | 1.69e6 |
| Wdr24 | DRSC14151 | 80277 | 77217 | 5.41e5 | 5.87e5 |
| Idgf2 | DRSC03350 | 9.18e5 | 9.09e5 | 1.55e6 | 1.45e6 |
| Idgf2 | DRSC26630 | 6.84e5 | 5.73e5 | 7.56e5 | 8.67e5 |
| Idgf2 | DRSC38977 | 8.29e5 | 6.72e5 | 2.03e6 | 1.66e6 |
| Prps | DRSC08994 | 2.13e5 | 1.31e5 | 3.60e5 | 2.47e5 |
| Prps | DRSC10707 | 2.04e5 | 2.11e5 | 2.16e6 | 1.87e6 |
| Prps | DRSC10708 | 2.91e5 | 1.94e5 | 3.67e6 | 2.55e6 |
| CG15772 | DRSC18078 | 1.69e5 | 2.73e5 | 1.84e6 | 1.56e6 |
| Ccdc56 + mtTFB1 | DRSC10809 | 6.18e5 | 6.46e5 | 1.75e6 | 1.49e6 |
| Ccdc56 + mtTFB1 | DRSC28766 | 7.10e5 | 5.68e5 | 1.22e6 | 1.06e6 |
| CG33783 | DRSC37804 | 9.29e5 | 4.25e5 | 1.73e6 | 5.93e5 |
| CatB | DRSC03194 | 1.86e6 | 2.24e6 | 3.54e6 | 3.53e6 |
| CatB | DRSC24516 | 6.68e5 | 8.30e5 | 5.77e5 | 7.19e5 |
| CG14864 | DRSC14987 | 1.23e5 | 1.72e5 | 2.20e6 | 2.45e6 |
| bnk | DRSC16912 | 1.45e5 | 1.27e5 | 1.69e6 | 2.60e6 |
| bnk | DRSC29887 | 6.17e5 | 6.64e5 | 1.08e6 | 1.15e6 |
| Uch-L5R | DRSC19825 | 2.68e5 | 2.74e5 | 2.39e6 | 2.36e6 |
| CG8314 | DRSC07144 | 1.46e6 | 1.07e6 | 2.82e6 | 1.90e6 |
| CG14478 | DRSC06450 | 65378 | 82009 | 1.15e6 | 1.15e6 |
| CG42331 | DRSC14633 | 2.49e5 | 2.63e5 | 2.16e6 | 3.25e6 |
| CG42331 | DRSC16126 | 2.17e5 | 2.49e5 | 2.17e6 | 2.41e6 |
| CG42331 | DRSC25930 | 3.41e5 | 3.70e5 | 7.95e5 | 6.45e5 |
| wde | DRSC05955 | 1.03e6 | 5.94e5 | 2.68e6 | 1.18e6 |
| RNaseP:RNA | DRSC22967 | 6.73e5 | 9.27e5 | 1.92e6 | 2.47e6 |
| CG1105 | DRSC12528 | 39276 | 29797 | 3.84e5 | 3.49e5 |
| CG1105 | DRSC27366 | 6.54e5 | 4.50e5 | 8.34e5 | 9.41e5 |
| CG14053 | DRSC17908 | 2.22e5 | 2.32e5 | 2.86e6 | 3.25e6 |
| CG13891 | DRSC08361 | 86111 | 1.12e5 | 1.69e6 | 1.73e6 |
| CG13891 | DRSC25733 | 8.46e5 | 9.36e5 | 1.26e6 | 1.54e6 |
| alpha-Cat | DRSC11917 | 3.80e5 | 4.36e5 | 2.61e6 | 2.62e6 |
| CG17544 | DRSC02624 | 9.70e5 | 1.02e6 | 1.40e6 | 1.43e6 |
| CG17544 | DRSC25562 | 7.92e5 | 6.58e5 | 1.56e6 | 1.71e6 |
| cort | DRSC02148 | 2.94e5 | 3.42e5 | 2.23e6 | 3.14e6 |
| cort | DRSC26829 | 2.67e5 | 3.52e5 | 5.19e5 | 4.55e5 |
| CG34347 | DRSC14305 | 39948 (active) | 47067 | 1.08e6 | 1.21e6 |
| CG34347 | DRSC23044 | 6.13e5 | 7.45e5 | 1.66e6 | 2.19e6 |
| CG34347 | DRSC24430 | 9.80e5 | 8.67e5 | 1.24e6 | 1.15e6 |
| Scamp | DRSC20286 | 2.83e5 | 4.28e5 | 3.27e6 | 3.83e6 |
| Scamp | DRSC29752 | 4.16e5 | 3.90e5 | 6.88e5 | 1.05e6 |
| CG14840 | DRSC14964 | 86784 | 81347 | 1.86e6 | 1.89e6 |
| CG14840 | DRSC27978 | 4.34e5 | 3.01e5 | 1.97e6 | 1.18e6 |
| CG15445 | DRSC20517 | 77504 | 63571 | 7.21e5 | 6.32e5 |
| crol | DRSC03514 | 8.37e5 | 9.20e5 | 1.93e6 | 2.59e6 |
| crol | DRSC21348 | 7.89e5 | 6.93e5 | 1.06e6 | 1.36e6 |
| crol | DRSC26800 | 3.59e5 | 3.05e5 | 5.22e5 | 6.02e5 |
| CG17841 | DRSC17737 | 2.60e5 | 2.60e5 | 9.08e5 | 7.89e5 |
| CG17841 | DRSC28821 | 4.90e5 | 4.99e5 | 1.23e6 | 1.46e6 |
| Cyp4d14 | DRSC18457 | 2.88e5 | 3.14e5 | 3.43e6 | 2.85e6 |
| Cyp4d14 | DRSC24460 | 3.89e5 | 4.50e5 | 3.81e5 | 4.45e5 |
